## Screening data, single-dose tests

Amino acid sequences for entries named in this document (tags omitted). Residues count along the entry.
UniProt I6X8D2, whole entry: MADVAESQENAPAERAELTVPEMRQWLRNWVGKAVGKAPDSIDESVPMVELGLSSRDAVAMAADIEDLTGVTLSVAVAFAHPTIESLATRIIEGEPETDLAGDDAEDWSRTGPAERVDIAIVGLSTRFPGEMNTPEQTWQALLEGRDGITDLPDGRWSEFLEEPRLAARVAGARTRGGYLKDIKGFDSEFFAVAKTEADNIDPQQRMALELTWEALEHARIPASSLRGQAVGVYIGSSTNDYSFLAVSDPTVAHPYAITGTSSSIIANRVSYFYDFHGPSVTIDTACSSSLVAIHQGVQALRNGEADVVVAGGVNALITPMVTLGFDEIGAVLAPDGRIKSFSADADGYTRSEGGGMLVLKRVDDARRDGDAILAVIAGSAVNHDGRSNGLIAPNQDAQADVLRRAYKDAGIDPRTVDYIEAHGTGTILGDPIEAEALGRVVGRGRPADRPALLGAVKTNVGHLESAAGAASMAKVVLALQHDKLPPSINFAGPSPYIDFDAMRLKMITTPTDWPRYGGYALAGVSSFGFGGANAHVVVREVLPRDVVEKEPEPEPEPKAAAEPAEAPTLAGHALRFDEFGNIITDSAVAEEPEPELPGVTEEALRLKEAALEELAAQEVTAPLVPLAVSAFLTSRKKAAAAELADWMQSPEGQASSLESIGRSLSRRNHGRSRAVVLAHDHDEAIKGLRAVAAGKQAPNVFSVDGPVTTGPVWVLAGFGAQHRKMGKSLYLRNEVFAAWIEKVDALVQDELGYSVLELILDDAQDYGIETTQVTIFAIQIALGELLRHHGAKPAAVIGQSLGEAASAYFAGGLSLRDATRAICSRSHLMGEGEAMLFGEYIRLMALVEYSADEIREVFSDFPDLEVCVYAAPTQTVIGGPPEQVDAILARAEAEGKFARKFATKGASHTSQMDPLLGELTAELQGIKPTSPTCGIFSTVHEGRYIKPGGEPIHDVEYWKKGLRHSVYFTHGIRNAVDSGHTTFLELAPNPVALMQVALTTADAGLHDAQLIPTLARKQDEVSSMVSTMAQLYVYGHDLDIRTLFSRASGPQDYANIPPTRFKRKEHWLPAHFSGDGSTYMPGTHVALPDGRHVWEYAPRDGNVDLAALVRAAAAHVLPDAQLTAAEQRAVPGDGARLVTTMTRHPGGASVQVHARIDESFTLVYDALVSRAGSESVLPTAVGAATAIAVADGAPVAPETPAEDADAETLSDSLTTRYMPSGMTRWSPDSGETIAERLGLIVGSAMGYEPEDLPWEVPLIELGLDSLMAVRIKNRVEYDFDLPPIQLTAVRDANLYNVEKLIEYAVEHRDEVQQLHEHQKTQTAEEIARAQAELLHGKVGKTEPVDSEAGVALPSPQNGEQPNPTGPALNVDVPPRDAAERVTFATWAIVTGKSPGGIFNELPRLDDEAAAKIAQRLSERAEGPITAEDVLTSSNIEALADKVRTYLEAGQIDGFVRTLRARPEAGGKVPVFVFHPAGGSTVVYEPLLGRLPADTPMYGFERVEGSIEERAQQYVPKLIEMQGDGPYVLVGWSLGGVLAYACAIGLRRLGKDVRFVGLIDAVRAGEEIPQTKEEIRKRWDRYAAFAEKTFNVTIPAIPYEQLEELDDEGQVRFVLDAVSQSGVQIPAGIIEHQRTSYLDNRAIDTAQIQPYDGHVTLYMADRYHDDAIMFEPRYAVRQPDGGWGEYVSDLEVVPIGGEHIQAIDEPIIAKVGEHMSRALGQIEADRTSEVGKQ
UniProt P9WFT3, whole entry: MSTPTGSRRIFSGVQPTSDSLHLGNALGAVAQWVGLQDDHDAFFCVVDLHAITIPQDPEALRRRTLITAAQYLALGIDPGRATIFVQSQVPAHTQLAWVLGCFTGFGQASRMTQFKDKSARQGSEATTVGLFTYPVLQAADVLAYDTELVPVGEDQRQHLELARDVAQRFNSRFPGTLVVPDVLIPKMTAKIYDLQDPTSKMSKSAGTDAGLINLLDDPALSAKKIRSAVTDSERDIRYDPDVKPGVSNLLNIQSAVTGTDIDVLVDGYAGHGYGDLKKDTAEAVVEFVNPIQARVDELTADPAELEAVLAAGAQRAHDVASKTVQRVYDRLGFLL
UniProt P9WNZ1, whole entry: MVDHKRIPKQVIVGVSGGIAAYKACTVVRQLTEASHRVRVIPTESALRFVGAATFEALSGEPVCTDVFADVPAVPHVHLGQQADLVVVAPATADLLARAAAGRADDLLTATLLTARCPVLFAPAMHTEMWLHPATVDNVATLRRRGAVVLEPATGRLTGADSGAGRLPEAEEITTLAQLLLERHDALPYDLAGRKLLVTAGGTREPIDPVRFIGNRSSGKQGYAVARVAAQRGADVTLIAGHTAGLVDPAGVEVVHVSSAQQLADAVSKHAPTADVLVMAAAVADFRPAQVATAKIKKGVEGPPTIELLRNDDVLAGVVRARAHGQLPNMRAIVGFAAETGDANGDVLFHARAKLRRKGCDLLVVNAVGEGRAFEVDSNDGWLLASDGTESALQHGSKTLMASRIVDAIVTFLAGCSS
UniProt Q8IDJ8, 1-583: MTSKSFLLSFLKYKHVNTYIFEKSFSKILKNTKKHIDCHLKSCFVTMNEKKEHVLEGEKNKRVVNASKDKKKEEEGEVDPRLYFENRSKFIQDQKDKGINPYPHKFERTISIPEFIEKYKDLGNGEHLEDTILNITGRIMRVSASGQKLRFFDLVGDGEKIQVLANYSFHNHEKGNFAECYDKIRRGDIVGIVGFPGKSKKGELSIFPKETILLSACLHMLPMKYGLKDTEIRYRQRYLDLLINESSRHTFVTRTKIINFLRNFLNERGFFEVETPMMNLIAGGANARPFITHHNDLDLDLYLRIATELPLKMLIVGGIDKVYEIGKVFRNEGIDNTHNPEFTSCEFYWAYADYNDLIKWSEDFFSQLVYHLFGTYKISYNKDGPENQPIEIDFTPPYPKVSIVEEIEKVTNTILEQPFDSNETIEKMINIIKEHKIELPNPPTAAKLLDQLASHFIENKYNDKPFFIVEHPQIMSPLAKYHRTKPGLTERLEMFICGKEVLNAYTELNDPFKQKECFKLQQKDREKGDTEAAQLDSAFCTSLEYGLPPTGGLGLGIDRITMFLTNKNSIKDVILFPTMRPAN

Data taken from ChEMBL document CHEMBL3988442, “University of Dundee, Small-Polar-MMV Screening Library” (2021).

Pks13 thioesterase: 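Enzyme assay of the thioesterase domain of polyketide synthase 13; the read-out is not stated. Target: Polyketide synthase Pks13, Mycobacterium tuberculosis (UniProt I6X8D2). Compounds at 30 µM. The record gives no direction; the compounds picked for IC50 retests had high values, so higher reads as stronger inhibition. About 67,000 compounds were tested under these conditions; 0.46% (about 300) showed 50% or more at least once.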
MtTrpRS: 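Tryptophan-tRNA ligase, Mycobacterium tuberculosis (UniProt P9WFT3). Enzyme assay of tryptophanyl-tRNA synthetase; the read-out is not stated. Concentration: 10 µM. Higher most likely means stronger inhibition; the record gives no direction and few retests gave an IC50. About 65,000 compounds were tested under these conditions; 0.098% (about 64) showed 50% or more at least once.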
CoaBC: 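Coenzyme A biosynthesis protein CoaBC, Mycobacterium tuberculosis (UniProt P9WNZ1). Enzyme assay of CoaBC with a phosphate dye (Biomol Green) read at 650 nm. Compounds at 30 µM. Direction is inferred from only a few compounds that gave an IC50; most scored high, so higher reads as stronger inhibition. Most strong results did not repeat in a second test. About 67,000 compounds were tested under these conditions; 0.06% (about 40) showed 50% or more at least once.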
PfKRS1: 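Lysine-tRNA ligase, Plasmodium falciparum 3D7 (UniProt Q8IDJ8). Enzyme assay of the cytosolic lysyl-tRNA synthetase in 384-well plates, read by luminescence. Concentration: 30 µM. Higher reads as stronger inhibition, judged from the few compounds that gave an IC50. Of about 69,000 compounds tested this way, about 49 (0.071%) reached 50% or more in at least one test.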

Each number is a percent effect as filed. The controls that fix the scale are not given in the record; negative values are as filed. The compounds are a random part of those screened. A dash means the value is not listed here; it may have been measured.

| # | structure | Pks13 thioesterase | MtTrpRS | CoaBC | PfKRS1 |
|---|---|---|---|---|---|
| 1 | `CC(C)[C@@H]1CN(C(=O)NCc2ccco2)C[C@H]1N(C)C` | -22.96 | -1.858 | - | 2.187 |
| 2 | `Cc1cc(C(=O)N2CC[C@@H](N(C)C)[C@@H]2Cc2ccccc2)no1` | -25.98 | 10.9 | -29.73 | 2.598 |
| 3 | `CN(C)CCN(Cc1ccco1)C(=O)Cc1cn2ccsc2n1` | -115.2 | -1.252 | 4.783 | -5.618 |
| 4 | `CCOC(=O)N1CCc2ccccc2C12CCNCC2` | 5.432 | - | 3.659 | 5.333 |
| 5 | `O=c1[nH]c(=O)n(CC(O)c2ccccc2Cl)cc1Cl` (centres undefined) | -5.563 | -2.579 | 8.367 | 2.772 |
| 6 | `CC(O)(CN1CCN(CCO)CC1)c1cccc(C(F)(F)F)c1` (centres undefined) | -42.07 | 12.91 | 5.018 | 0.1107 |
| 7 | `Cc1cc(=O)[nH]c(CCNC(=O)C(c2ccc(F)cc2)N(C)C)n1` (centres undefined) | -26.16 | 1.069 | 3.656 | 1.864 |
| 8 | `Cc1nnc(N2C[C@H]3OCC[C@H]3[C@H](C(=O)NCC3CC3)C2)s1` | -6.979 | 1.195 | -1.053 | 1.793 |
| 9 | `CCOC(=O)c1n[nH]cc1CN1CCCC(N(C)Cc2ccccc2)C1` (centres undefined) | 0.5318 | -4.359 | -0.3681 | -1.686 |
| 10 | `CCNC(=O)NC(=O)CNC(C)(CC)c1nccs1` (centres undefined) | -24.06 | 3.186 | 4.555 | 0.4644 |
| 11 | `CC(=O)c1c(F)cccc1N1CCC(CS(N)(=O)=O)CC1` | 5.444 | -5.674 | 4.086 | -0.4231 |
| 12 | `N#Cc1ccccc1C(=O)N1C[C@@H](CN2CCCCC2)[C@@H](CO)C1` | -33.02 | 4.418 | -1.794 | 8.462 |
| 13 | `CC(C)OCc1ncn2c1CN(Cc1nccs1)CCC2` | 54.54 | -4.856 | 1.269 | -3.924 |
| 14 | `Cc1nc(C(=O)N2CCCC2c2c(C)nn(C)c2C)ccc1C#N` (centres undefined) | -8.207 | -1.462 | -13.05 | 0.871 |
| 15 | `CC(C)c1nnc2n1CCN(C(=O)c1ccc(-n3cnnc3)cc1)C2` | -38.75 | 4.144 | -6.41 | 0.922 |
| 16 | `Cc1cccc(-c2nc(CNC3CCc4nc(C)nn4C3)no2)c1` (centres undefined) | -2.785 | -3.888 | 5.747 | 2.654 |
| 17 | `CC(NC(=O)COc1ccccc1I)C1CC1` (centres undefined) | -16.86 | -2.825 | 4.545 | -1.124 |
| 18 | `O=C1N[C@@H]2CCN(C(=O)c3ccccc3)[C@@H]2C(=O)N1c1ccc(F)cc1` | -43.39 | -2.786 | 11.96 | 4.782 |
| 19 | `O=C(Nc1cccc(OCc2ccc(F)cc2)c1)C1COCCO1` (centres undefined) | 15.18 | -1.421 | -0.4464 | 3.582 |
| 20 | `CSCCN(C)Cc1ccc(F)cc1C#N` | -0.6214 | -9.44 | 1.375 | 5.13 |
| 21 | `Cn1ccc(C(=O)NC2CCC23CCN(Cc2cnn(C)c2)CC3)c1` (centres undefined) | -2.72 | 2.65 | -0.4847 | 1.778 |
| 22 | `c1cc(N2CCC3(COCc4cnc(NCC5CC5)nc43)C2)ncn1` (centres undefined) | -15.71 | -1.051 | 0.8631 | -5.395 |
| 23 | `Cc1noc(C)c1Cc1nc(C2CC2)no1` | -5.542 | 1.288 | 5.968 | -4.325 |
| 24 | `COC(=O)[C@@H]1CCCN1C(=O)c1cn(C/C=C/c2ccccc2)nn1` | -2.698 | 3.595 | 2.545 | -1.65 |
| 25 | `CO[C@H]1CN(C(C)C)C[C@@H]1NC(=O)Nc1ccc(C(F)(F)F)cc1` | -19.69 | 6.833 | 9.689 | -7.53 |
| 26 | `CC(C)(O)CN1CCN(C(=O)COC2CCCC2)CC1` | -4.366 | -1.41 | -2.211 | 3.542 |
| 27 | `CCc1nc(C2CCCN(C(=O)NC(C)C)C2)no1` (centres undefined) | -22.1 | 22.57 | 3.394 | -1.273 |
| 28 | `CCOc1nc2cnccc2n(CC(=O)NCc2ccc(C)cc2)c1=O` | -6.887 | -1.467 | -1.805 | 2.756 |
| 29 | `Cc1nc(N2CCN(c3ccccc3)CC2)c2c(n1)c(C)nn2C` | -3.51 | -0.1295 | -1.386 | 3.667 |
| 30 | `Cc1noc(C)c1CS(=O)(=O)CC(=O)N1CCc2sccc2C1` | 10.64 | -4.283 | 7.955 | 1.645 |
| 31 | `CC(=O)N1CCN(c2cc(-c3ccccc3)nc3c(C)c(C)nn23)CC1` | -20.36 | 0.7401 | 6.237 | -1.109 |
| 32 | `CN(CCO)Cc1nnc(C2CCN(C(=O)C3CCOCC3)CC2)n1C` | - | -5.093 | -1.799 | 2.758 |
| 33 | `CNc1cccc(C2CCCN(C(=O)Cc3ccccc3)C2)n1` (centres undefined) | 9.991 | - | 4.843 | 3.404 |
| 34 | `Cc1ccc2c(c1)OCCN2C(=O)c1ccc(=O)n(C)c1` | -30.29 | -3.625 | 7.438 | 5.317 |
| 35 | `CCc1nc(C2CCCN2C(=O)CCn2cncn2)no1` (centres undefined) | -5.568 | -2.421 | 2.372 | 5.006 |
| 36 | `Cc1cccnc1NC(=O)c1ccc(F)c(S(=O)(=O)NC2CC2)c1` | -11.1 | 0.5112 | 0.1274 | 4.987 |
| 37 | `COc1cccc(CN2CC(=O)N(c3ccccc3C)CC2C)c1OC` (centres undefined) | 19.26 | -2.98 | 6.311 | 4.305 |
| 38 | `CCc1cnc(NC(=O)NC2CCN(C3CCCC3)CC2)s1` | -23.54 | -2.98 | -10.19 | 1.048 |
| 39 | `CCS(=O)(=O)N1C[C@@H]2CN(Cc3cnn(C)c3)CCO[C@@H]2C1` | -20.65 | -0.07969 | -0.2105 | -1.163 |
| 40 | `Cc1ccccc1[C@@H]1CN(Cc2nc3ncccn3n2)C[C@H]1C(=O)O` | -1.221 | -4.294 | -0.7453 | 0.8156 |
| 41 | `N[C@@H]1CC[C@H](C(=O)NCc2ccc3nonc3c2)C1` | -27.98 | 0.5093 | 8.049 | 1.895 |
| 42 | `CC(C)(C)N1CCN(C(=O)c2cccnc2-n2cncn2)CC1` | - | -4.674 | -1.603 | 9.037 |
| 43 | `Cn1cc(N2CCCC(NCc3cccc4c3OCCCO4)C2)cn1` (centres undefined) | -2.475 | 0.8607 | 2.017 | 3.925 |
| 44 | `c1csc(CN2CC3(CCN(Cc4ccsc4)C3)C2)n1` | -4.27 | 1.465 | 0.3257 | -0.1855 |
| 45 | `CCCOC(=O)C(C)Sc1nnnn1C1CCOCC1` (centres undefined) | 3.692 | -2.484 | -0.615 | 0.441 |
| 46 | `CS(=O)(=O)CCOCCNc1cncc(Br)c1` | 35.97 | 3.972 | 3.481 | 8.443 |
| 47 | `CC1c2ccsc2CCN1Cc1cc2c(cc1O)OCO2` (centres undefined) | 15.6 | -3.301 | -2.892 | -7.207 |
| 48 | `Cc1c(C)c2c(c(C)c1O)CC[C@](C)(C(=O)O)O2` | 30.86 | - | 2.913 | 4.289 |
| 49 | `CNC(=O)NC(=O)CN1CCC(c2c[nH]c3ccc(OC)cc23)CC1` | -9.671 | 4.44 | 0.8929 | 2.581 |
| 50 | `COc1ccc(C(=O)NC2COc3ccccc3C2)cc1OCC(=O)O` (centres undefined) | -29.28 | -3.01 | 0.319 | 0.1896 |
| 51 | `O=C([C@@H]1CCO[C@@H]2CCN(CC3CC3)C[C@H]21)N1CCCC1` | -36.06 | 2.698 | 5.665 | 3.007 |
| 52 | `COC(=O)C1CN(Cc2ccccc2C(C)(C)C#N)CCO1` (centres undefined) | -79.15 | -3.396 | -3.171 | 6.248 |
| 53 | `O=C(c1c[nH]cn1)N1CCCn2c(CN3CCCCC3)nnc2C1` | -31.89 | -0.7171 | 1.895 | -1.771 |
| 54 | `CCNC(=O)c1ccc(NC2CCOC3(CCCCC3)C2)nn1` (centres undefined) | -1.28 | 9.1 | -2.675 | -5.971 |
| 55 | `CC(=O)Nc1ccc2c(c1)CN(C(=O)c1ccco1)CC2` | -10.61 | 4.071 | 6.719 | 1.249 |
| 56 | `Cc1nc(CN(C)C(=O)c2cccc(CC3CCNCC3)c2)no1` | -7.691 | -2.016 | 2.703 | -3.546 |
| 57 | `CCc1nnc(CNC(=O)c2cc3c(nc2OC)CCC3)s1` | 8.134 | 4.159 | 0.8264 | -4.695 |
| 58 | `O=C(NCc1ccc(Cl)s1)c1ccc(N2CCOC2=O)cc1` | 2.51 | -0.8475 | 10.08 | 22.52 |
| 59 | `Cc1nc(N2CCCC2)nc2c1CN(C(=O)NC(C)C)CC2` | -30.5 | -0.8292 | 6.118 | 1.617 |
| 60 | `Cc1cc(C)n(CC2CCCN2C(=O)c2cccn3ccnc23)n1` (centres undefined) | -14.43 | 2.709 | 5.106 | 0.9482 |
| 61 | `CCC[C@@H]1CN(C(=O)c2c(F)ccc(OC)c2F)C[C@H]1C(=O)O` | -21.89 | 1.729 | 7.229 | 4.255 |
| 62 | `COc1cccc(CN2CCCCCC2c2cccc(C)c2)c1O` (centres undefined) | -4.423 | -3.418 | 5.45 | -7.822 |
| 63 | `O=C(NCc1ccccn1)NCC(c1ccco1)N1CCCCC1` (centres undefined) | 10.18 | -2.199 | -2.146 | 6.618 |
| 64 | `Cc1ncc(CNc2cnccc2CO)s1` | -11.49 | -5.757 | 0.3764 | 3.059 |
| 65 | `CC(=O)N1CCCC(c2nc(N(C)C)ncc2-c2cccc(F)c2)C1` (centres undefined) | -115.3 | -4.706 | 3.585 | 3.905 |

For reference, 4 entries once more:

structure,Pks13 thioesterase,MtTrpRS,CoaBC,PfKRS1
COC(=O)C1CN(Cc2ccccc2C(C)(C)C#N)CCO1 (centres undefined),-79.15,-3.396,-3.171,6.248
Cc1cc(C)n(CC2CCCN2C(=O)c2cccn3ccnc23)n1 (centres undefined),-14.43,2.709,5.106,0.9482
CC(C)(O)CN1CCN(C(=O)COC2CCCC2)CC1,-4.366,-1.41,-2.211,3.542
CN(CCO)Cc1nnc(C2CCN(C(=O)C3CCOCC3)CC2)n1C,-,-5.093,-1.799,2.758